Results published in PubChem BioAssay AID493014 (National Center for Advancing Translational Sciences (NCATS), 2011).
About 170 (0.05%) of roughly 340,000 compounds were called active. The inconclusive results got no clear call from the source; some entries with a clear call stand among them for comparison. The call rests on the fitted dose curve; in most records, active means well fitted inhibition curve with a large enough effect in the signal ratio, with a control signal flat (not every such curve was filed as active); inconclusive means small, poorly fitted or top-dose-only effect, or effect the other way, or a change in a side signal; inactive means flat fitted curve, though single readings scatter; the % refers to the signal ratio. A potency beside an inconclusive call is a rough fit, not a confirmed value. Square brackets hold non-standard residues; d marks the D form. Peptide text beside a SMILES is read from it. * marks the point of attachment. Tos = Cc1ccc(S(=O)(=O)*)cc1

Test: qHTS Assay to Find Inhibitors of Chronic Active B-Cell Receptor Signaling;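 on activity change, negative = inhibition: plate controls were basal doxycycline-induced cells for no effect and cells given 10 µM MG132 for full effect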
Settings: ABC-DLBCL IkBa-CBG/CBR reporter, luminescence ratio (green luciferase fused to IkBa over red control in TMD8 lymphoma cells), 4 h; activity change, negative = inhibition: at 46.1 µM (top of the series)
Summary of the method: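 Concentration-response series (up to 46 uM) were applied to TMD8 dual-reporter cells for 4 h at 37C with doxycycline. Green/red ratio, after filter-overlap correction, defined %Activity; red signal alone was normalised to basal cells and zero luminescence.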
Potency means the concentration at half of the fitted maximal effect.

| Compound | activity change, negative = inhibition | Potency |
| --- | --- | --- |
| O=C(NC1CCCc2c1cnn2-c1ccc(F)cc1F)c1cnccn1 (configuration not stated) | inconclusive: 11% | – |
| CC(C)C(=O)N1CCN(c2ccc(NC(=O)c3cccs3)cc2)CC1 | inactive | – |
| Clc1cccc(/C=N/Nc2nnc(Cl)c3ccccc23)c1 | inconclusive: -6.87% | – |
| O=C(NC1CCCC1)c1c(O)nc2sccn2c1=O | – | inconclusive: 18.4 µM [falling, single point] |
| COc1ccc(NC(=O)c2cc3ccccc3cc2OC)cc1 | inconclusive: -8.26% | – |
| Cc1ccc(S(=O)(=O)N[C@@H](Cc2ccccc2)C(=O)N2CCC[C@@H]2C(=O)O)cc1 (Tos-Phe-[dP]-OH) | inconclusive: 2.65% | – |
| COC(=O)/C=C/C(=O)N1CCN(c2ccccc2C)CC1 | inconclusive: 4.35% | – |
| COc1cc(NC(=O)CSc2nnc3n2C(C)(C)Cc2ccccc2-3)cc(OC)c1 | inconclusive: -4.49% | – |
| CCOc1ccccc1OCCCNCc1ccccc1 | inconclusive: 9.4% | – |
| Cc1ccc(C(=O)Nc2ccc3c(c2)OCCO3)c(Cl)c1 | inactive | – |
| Cc1cc(C(=O)Cn2nc(C(=O)O)c3ccccc3c2=O)c(C)n1-c1ccc(F)cc1 | inactive | – |
| CN1C(=O)CC(N2CCN(C(=O)c3ccccc3)CC2)C1=O (configuration not stated) | inconclusive: 0.408% | – |
| CCC(=O)Nc1cccc(NC(=S)NC(=O)c2cccs2)c1 | – | inconclusive: 23.1 µM [falling, partial curve, poor fit] |
| COc1ccccc1N(C)S(=O)(=O)c1ccc(C(=O)N(C)Cc2ccc(OC(F)F)cc2)cc1 | inactive | – |
| CC(C)Oc1ccc(OCCn2c(=S)[nH]c3c(N)ncnc32)cc1 | inconclusive: 25.6% | – |
| Cc1ccc2[nH]c3c(=O)n4c(nc3c2c1)SCC4 | – | inconclusive: 12.6 µM [falling, partial curve, poor fit] |
| Cc1cc(C(=O)Nc2ccccc2Cl)n(-c2ccccc2)n1 | inconclusive: 1.13% | – |
| CNC(=S)N1CCC(n2cnc3ccccc32)CC1 | – | inconclusive: 35.5 µM [rising, single point] |
| COc1cc(C(=O)NC(=S)Nc2nccs2)cc(OC)c1OC | inactive | – |
| O=C(CCl)N1CCN(S(=O)(=O)c2ccc3ccccc3c2)CC1 | inconclusive: -0.233% | – |
| CC(=O)NC1(c2ccc(F)cc2)CCN(C(=O)c2c(F)cccc2F)CC1 | – | inconclusive: 35.5 µM [falling, single point] |
| Clc1ccc(-c2csc(=Nc3cccnc3)n2CCCn2ccnc2)cc1Cl | inconclusive: -10.5% | – |
| COc1cc(/C=C(\C#N)c2[nH]nc(N)c2C#N)cc(OC)c1O | inactive | – |
| COc1ccc2c(c1)cc1n2CCN2CCCN=C12 | inconclusive: 9.81% | – |
| CCCC(=O)Nc1ccc(C(=O)COC(=O)c2cc(C)oc2C)cc1 | – | inconclusive: 20.6 µM [falling, single point] |
| CCOc1cc(C(=O)OC(C)C(=O)Nc2ccc(S(N)(=O)=O)cc2)ccc1OCC(=O)N1CCOCC1 (configuration not stated) | inconclusive: 2.81% | – |

| Compound | activity change, negative = inhibition | Potency |
| --- | --- | --- |
| Cc1ccc(N(CC(=O)NCc2ccco2)S(=O)(=O)c2ccccc2)cc1 | – | inconclusive: 17.8 µM [falling, single point] |
| CCOC(=O)[C@H]1[C@H]2COc3ccc(C)cc3[C@@H]2N2C(=O)c3ccc(C)cc3NC(=O)[C@@]12C | inconclusive: -0.57% | – |
| Cc1cc(C)nc(NNC2=CC(=O)CC(C)(C)C2)n1 | inconclusive: 6.22% | – |
| CC1CCCN(c2c3c(nc4ccccc24)CCCC3)C1 (configuration not stated) | inactive | – |
| C[C@@H](C(=O)NCCc1c[nH]c2ccccc12)[C@@H]1C[C@@]1(C)[C@@H](NC(=O)OCc1ccccc1)c1ccccc1 | inconclusive: -11.7% | – |
| COC(=O)Nc1ccc(S(=O)(=O)N2CCCC(C(=O)Nc3cccc4c3OCCO4)C2)cc1 (configuration not stated) | inconclusive: -15.1% | – |
| Cc1ccc(Nc2c([N+](=O)[O-])c(=O)n(C)c3ccccc23)cc1 | – | inconclusive: 1.12 µM [falling, full curve, poor fit] |
| CN(C)S(=O)(=O)c1cc(NC(=O)c2cc(=O)c3ccccc3o2)ccc1Cl | inconclusive: -22.2% | – |
| CCOC(=O)c1c(C2CC2)csc1NC(=O)COC(=O)c1ccc[n+]([O-])c1 | – | inconclusive: 18.4 µM [falling, single point] |
| C=CCn1c(-c2cc(OC)c(OC)c(OC)c2)n[nH]c1=S | inconclusive: 13.1% | – |
| Cc1ccc2cc(CN(CC3CCCO3)C(=S)NCc3ccco3)c(=O)[nH]c2c1C (configuration not stated) | inactive | – |
| CC1CCC2(CC1)NC(=O)N(CC(=O)c1ccc[nH]1)C2=O (configuration not stated) | inconclusive: 2.74% | – |
| Cc1ccc2c(c1)c1c3n2CC(=C2C(=O)OC(C)(C)OC2=O)NC3CCC1 (configuration not stated) | inactive | – |
| COc1cc2cc(C(=O)O)n(C)c2c(OC)c1OC | inconclusive: 12.9% | – |
| Cc1noc(C)c1COc1cccc(C(=O)Nc2ccccc2)c1 | inconclusive: -3.51% | – |
| CCOC(=O)CN(C(=O)COc1ccc2c(C)cc(=O)oc2c1)c1ccc(OCC)cc1 | inconclusive: 3.65% | – |
| CSc1ccc(C(=O)N2CCC(n3nccc3NC(=O)C3CC3)CC2)cc1 | inconclusive: 6.23% | – |
| Fc1c(F)c(F)c(CSc2nc3ccccc3[nH]2)c(F)c1F | inconclusive: 1.93% | – |
| S=c1[nH]ncn2c1cc1oc3ccccc3c12 | inconclusive: 1.57% | – |
| CCOC(=O)C(NC(C)=O)C(O)c1ccc([N+](=O)[O-])cc1 (configuration not stated) | inactive | – |
| CNC(=S)N1N=C2c3ccccc3CCC2C1c1ccccc1Cl (configuration not stated) | inconclusive: 0.579% | – |
| CCOC(=O)c1c(NC(=O)COC(=O)c2ccc(NC(=O)CC#N)cc2)sc(C(=O)NC)c1C | inactive | – |
| COC(=O)C(CCSC)NC(=O)c1cc2c(n(-c3ccccc3)c1=O)CCCC2=O (configuration not stated) | – | inconclusive: 31.6 µM [falling, single point] |
| COc1ccc(CNC(=O)NCCc2c[nH]c3ccccc23)cc1 | inconclusive: -14.9% | – |
| COCCN(Cc1cc2cc3c(cc2nc1Cl)OCO3)C(=O)c1ccc(C)cc1 | – | inconclusive: 10 µM [falling, partial curve] |
| COc1ccc(C(=O)CCC(=O)Nc2ccccc2C)cc1 | – | inconclusive: 15.8 µM [falling, partial curve, poor fit] |

Reformatted comma-delimited: entries from further up.
Compound,"activity change, negative = inhibition",Potency
CSc1ccc(C(=O)N2CCC(n3nccc3NC(=O)C3CC3)CC2)cc1,inconclusive: 6.23%,–
Fc1c(F)c(F)c(CSc2nc3ccccc3[nH]2)c(F)c1F,inconclusive: 1.93%,–
